This test has as its system calcium channels. Particulars: read-out: IC50 values for blocking calcium channels; cerebellar granule cells from 8 day old rats, fura2 fluorescence, 37° C.

As usually defined, the IC50 is the concentration that gives 50% inhibition.

As to `COC(=O)C1=C(C)NC(C)=C(C(=O)OC)C1c1ccccc1[N+](=O)[O-]` [Nifedipine], the 50% inhibitory concentration (IC50) came out at 0.033 µM.
